Some of the results follow. Shown are side measurements of this screen, not its main read-out; they come without a call. Most of these compounds were active or inconclusive in the main read-out, so they are no random draw. Words in brackets tell the shape of the fitted curve; partial curves, single points and poor fits give uncertain potencies.
Test: qHTS Assay to Find Inhibitors of Chronic Active B-Cell Receptor Signaling
Conditions: ABC-DLBCL IkBa-CBG/CBR reporter, luminescence ratio (green luciferase fused to IkBa over red control in TMD8 lymphoma cells), 4 h
In short: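 Cell line TMD8 (human ABC DLBCL), stably expressing tet-inducible CBG68-IkBa fusion and CBR; IMDM/0.5% FBS; cpd up to 46 uM; dox induction, 4 h, 37C/5% CO2; dual luminescence; green/red ratio; MG132 control.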

[1] = measured here: IkBa-CBG green luminescence
[2] = measured here: CBR red luminescence, cell number

| SMILES | AC50 [1] | AC50 [2] |
| --- | --- | --- |
| COc1cc2c(cc1OC)C(c1cc(Br)c(OC)c(OC)c1)CC(=O)N2 (stereo not given) | 11.2 µM [falling, partial curve, poor fit] | – |
| CCC(=O)Nc1cccc(-c2cc3ccccc3oc2=O)c1 | – | 22.4 µM [falling, single point] |
| CC(C)OC(=O)c1cc2c(=O)[nH]c(C(Cl)(Cl)Cl)nc2o1 | – | 10 µM [falling, partial curve] |
| Cc1c(/C=N/NC(=O)CNc2ccccc2)c2ccccn2c1C(=O)c1ccccc1 | – | 2.91 µM [falling, full curve] |
| O=C1/C(=C/c2ccccc2F)SC(=S)N1CC(=O)N1CCCCC1c1cccnc1 (stereo not given) | – | 22.4 µM [falling, single point] |
| CCn1c(C)nc2cc(C(=O)NNS(=O)(=O)c3ccccc3F)ccc21 | – | 1 µM [falling, partial curve, poor fit] |
| O=C(N/N=C/c1ccc([N+](=O)[O-])o1)c1cc(-c2ccc(-c3ccccc3)cc2)nc2ccccc12 | 5.62 µM [falling, full curve] | 5.62 µM [rising, full curve] |
| Cc1[nH]c2ccc(C(=O)NC3CCC(C)CC3)cc2c1C (stereo not given) | – | 11.2 µM [falling, partial curve, poor fit] |
| Cc1ccc(C)c(CN2C(=O)c3ccccc3S(=O)c3ccc(C(=O)N4CCN(c5ccccn5)CC4)cc32)c1 (stereo not given) | – | 22.4 µM [falling, single point] |
| COc1ccc(Cn2c(=O)sc3ccccc32)cc1OC | – | 16.4 µM [falling, single point] |
| Cc1nn(CC(=O)Nc2ccc(Cl)cc2Cl)c(=O)c2ccccc12 | – | 11.2 µM [rising, partial curve] |
| CCN(CC)C(=O)c1cc(C(C)(C)C)c(O)c(C(C)(C)C)c1 | – | 14.6 µM [falling, partial curve, poor fit] |
| Cc1ccc(Nc2cc(C)c3ccc(O)cc3n2)cc1C | – | 17.8 µM [rising, partial curve, poor fit] |
| COc1ccc(NC(=O)CSc2nnc(-c3ccoc3C)n2CCc2ccccc2)cc1 | – | 4.11 µM [falling, full curve, poor fit] |
| CCc1ccc(NC(=O)c2ccccc2Br)cc1 | – | 8.91 µM [falling, partial curve] |
| O=C1NC(=O)C(=C2CCCCCC2)S1 | 9.2 µM [falling, partial curve] | 11.6 µM [rising, partial curve] |
| COc1ccc(CCNc2ncnc3c2c(C)c(C)n3CCO)cc1OC | – | 35.5 µM [rising, single point] |
| COc1cc(/C=C2\N=C(c3c(-c4ccccc4)noc3C)OC2=O)ccc1OC(C)=O | – | 25.1 µM [falling, single point] |
| Cc1ccc(NC(=O)NCCCCc2ccccc2)cc1 | – | 0.1 µM [rising, full curve, poor fit] |
| COc1ccccc1NC(=O)COc1ccc2c(c1)OCO2 | – | 7.08 µM [falling, full curve, poor fit] |
| COc1cccc(NC(=O)N2CCN(c3nc(-c4cccc(OC)c4)cs3)CC2)c1 | – | 35.5 µM [falling, single point] |

| SMILES | AC50 [1] | AC50 [2] |
| --- | --- | --- |
| CCOC(=O)CCCNC(=O)CN1CCC(c2nc3ccccc3s2)CC1 | – | 8.91 µM [falling, partial curve, poor fit] |
| O=C(Nc1ccccc1N1CCCCC1)C1CCN(S(=O)(=O)c2cccc(C(F)(F)F)c2)CC1 | – | 25.9 µM [falling, partial curve, poor fit] |
| CC(C)c1nc2c(c(=O)c3ccccc3n2C)c(=O)n1CCc1ccccc1 | – | 2.51 µM [falling, full curve, poor fit] |
| N/C(Cc1ccc(Cl)c(Cl)c1)=N\OC(=O)c1ccc(Br)o1 | – | 6.31 µM [rising, partial curve, poor fit] |
| O=C(NN=C1C2CC3CC(C2)CC1C3)c1cc(Cl)ccc1O | – | 1 µM [falling, full curve] |
| CCOc1ccc(-c2cc(N3C(=O)Nc4ccccc4N3O)on2)cc1 | – | 10.3 µM [falling, partial curve, poor fit] |
| O=C(CNC(=O)c1cccnc1)N/N=C/c1ccc(O)cc1O | – | 5.01 µM [falling, full curve, poor fit] |
| Cc1nn(CC(=O)Nc2ccc3c(c2)nc(CCN2CCCCC2)n3C)c(=O)c2ccccc12 | – | 32.6 µM [falling, single point] |
| Oc1ccc(CNCc2ccc3c(c2)OCO3)c2cccnc12 | 8.2 µM [falling, partial curve, poor fit] | – |
| O=C(Oc1oc(-c2ccco2)nc1C=Nc1ccccc1)c1ccoc1 | – | 12.6 µM [falling, partial curve, poor fit] |
| O=c1[nH][nH]c(-c2ccccc2)c1C=Nc1ccccc1 | – | 14.1 µM [falling, single point] |
| Cc1ccc(C)c(-c2csc(NC(=O)c3c(C)noc3C)n2)c1 | – | 14.6 µM [falling, partial curve, poor fit] |
| C=CCN1C(c2ccc(OCC)cc2)=CS/C1=C(\C#N)c1nnc2n1CCCCC2 | – | 2.06 µM [falling, partial curve, poor fit] |
| Cc1cc(NC(=O)Cn2nnc3sc4c(c3c2=O)CCC(C(C)(C)C)C4)no1 (stereo not given) | – | 35.5 µM [rising, single point] |
| Cc1ccn2c(c1)nc(=S)n2C(=O)c1ccccc1 | – | 3.66 µM [falling, full curve] |
| CC(C)n1c(C(=O)OCC(=O)NCc2ccc3c(c2)OCO3)cc2occc21 | – | 20 µM [rising, single point] |
| CCN1CCN(c2cc(C)c3cc(NC(=O)c4cncc(Br)c4)ccc3n2)CC1 | – | 2.24 µM [falling, partial curve] |
| O=C1COc2ccc(C(=O)COc3ccc(Cl)cc3Br)cc2N1 | – | 0.259 µM [rising, full curve, poor fit] |
| CC(CC(=O)O)Nc1ccccc1O (stereo not given) | – | 15.8 µM [falling, single point] |
| Nc1cnc(Nc2ccc(Br)cc2)nc1N | 15.8 µM [rising, partial curve, poor fit] | 15.8 µM [falling, single point] |
| COc1cccc(NC(=O)CN2C(=O)C3(OCCCO3)c3ccccc32)c1 | – | 15.8 µM [falling, partial curve, poor fit] |

| SMILES | AC50 [1] | AC50 [2] |
| --- | --- | --- |
| O=C(CSc1nccc(=O)[nH]1)Nc1ccc2c(c1)OCCO2 | – | 35.5 µM [falling, single point] |
| COc1cccc2cc(C(N)=O)/c(=N\NC(=O)c3ccccc3)oc12 | – | 3.55 µM [falling, full curve, poor fit] |
| Nc1ccc(Cc2nc3cc4ccccc4cc3[nH]2)cc1 | – | 0.631 µM [falling, full curve, poor fit] |
| Cc1nc(CSc2nnc(Nc3cccc(C)c3C)s2)cs1 | – | 18.4 µM [rising, single point] |
| CCOC(=O)c1ccc(N2C(=O)C(CC(N)=O)N(NC(=O)c3cccc(F)c3)C2=S)cc1 (stereo not given) | – | 1 µM [falling, full curve] |
| CC(NC(=O)c1ccccc1NC(=O)c1ccco1)c1ccccc1 (stereo not given) | – | 29.1 µM [rising, single point] |
| O=C(NCC(=O)N1CCN(S(=O)(=O)c2ccc3c(c2)OCCO3)CC1)c1ccccc1F | – | 29.1 µM [rising, partial curve, poor fit] |
| O=C(Nc1nc2ccccc2[nH]1)C1CCN(C(=O)c2ccc(F)cc2)CC1 | – | 7.31 µM [falling, partial curve] |
| CC(=O)Nc1ccc(S(=O)(=O)Nc2c(C)n(C)n(-c3ccccc3)c2=O)cc1 | – | 15.8 µM [rising, partial curve, poor fit] |
| CCOC(=O)C(=O)Nc1nnc(CCc2ccccc2)s1 | – | 1.03 µM [falling, partial curve, poor fit] |
| Cn1cc(C(=O)c2ccc(F)cc2)cc1-c1nc2ccccc2n1C | – | 1.84 µM [rising, partial curve, poor fit] |
| CN(C)c1ccc(C(=O)OCC(=O)Nc2cccc(S(=O)(=O)N3CCCC3)c2)cc1 | – | 1.84 µM [rising, partial curve, poor fit] |
| C[C@H](CO)N1C[C@H](C)[C@@H](CN(C)Cc2ccc(Cl)c(Cl)c2)Oc2c(NS(=O)(=O)c3ccc(F)cc3)cccc2C1=O | – | 32.6 µM [falling, single point] |
| CC(C)(C)c1ccc(-c2csc(NNC3=NCCCCC3)n2)cc1 | – | 3.26 µM [rising, single point] |
| Cc1cccc(C(=O)N(Cc2nc3ccccc3c(=O)[nH]2)C2CCCCC2)c1 | – | 20 µM [falling, single point] |
| COc1ccc(-c2cc(=O)oc3cc(OC(=O)C4CCCCC4)c(Cl)cc23)cc1 | 4.11 µM [rising, full curve] | – |
| COc1ccccc1Cn1nnc2c(=O)[nH]c(C3CCN(C(=O)c4ccccc4Cl)CC3)nc21 | – | 28.2 µM [falling, single point] |
| CCOC(=O)c1c(NC(=O)COC(=O)c2cnc(C)cn2)sc(C(=O)N(C)C)c1C | – | 20.6 µM [rising, partial curve, poor fit] |
| CCOC(=O)CSc1n[nH]c(NC(=O)c2cccc(C)c2)n1 | – | 7.08 µM [falling, full curve, poor fit] |
| O=c1[nH]c(=O)n([C@H]2C[C@H](O)[C@@H](CO)O2)cc1C(F)(F)F | – | 0.206 µM [rising, full curve, poor fit] |

Four structures out of the list, sorted by count of non-hydrogen atoms, descending:

| SMILES | AC50 [1] | AC50 [2] |
| --- | --- | --- |
| CCOC(=O)c1ccc(N2C(=O)C(CC(N)=O)N(NC(=O)c3cccc(F)c3)C2=S)cc1 (stereo not given) | – | 1 µM [falling, full curve] |
| O=C(Nc1nc2ccccc2[nH]1)C1CCN(C(=O)c2ccc(F)cc2)CC1 | – | 7.31 µM [falling, partial curve] |
| CC(NC(=O)c1ccccc1NC(=O)c1ccco1)c1ccccc1 (stereo not given) | – | 29.1 µM [rising, single point] |
| Cc1nc(CSc2nnc(Nc3cccc(C)c3C)s2)cs1 | – | 18.4 µM [rising, single point] |

From PubChem BioAssay AID493014 (National Center for Advancing Translational Sciences (NCATS), 2011)
